In paper PMC6534289:
These are yes or no findings as the source states them, for the method shown. In cells and extracts the contact can be indirect. Some results given as binding are weak or reduced against the parent protein; the word gives no strength.

Chains of the proteins cited; added tags and fusions are not shown.
UniProt P58462: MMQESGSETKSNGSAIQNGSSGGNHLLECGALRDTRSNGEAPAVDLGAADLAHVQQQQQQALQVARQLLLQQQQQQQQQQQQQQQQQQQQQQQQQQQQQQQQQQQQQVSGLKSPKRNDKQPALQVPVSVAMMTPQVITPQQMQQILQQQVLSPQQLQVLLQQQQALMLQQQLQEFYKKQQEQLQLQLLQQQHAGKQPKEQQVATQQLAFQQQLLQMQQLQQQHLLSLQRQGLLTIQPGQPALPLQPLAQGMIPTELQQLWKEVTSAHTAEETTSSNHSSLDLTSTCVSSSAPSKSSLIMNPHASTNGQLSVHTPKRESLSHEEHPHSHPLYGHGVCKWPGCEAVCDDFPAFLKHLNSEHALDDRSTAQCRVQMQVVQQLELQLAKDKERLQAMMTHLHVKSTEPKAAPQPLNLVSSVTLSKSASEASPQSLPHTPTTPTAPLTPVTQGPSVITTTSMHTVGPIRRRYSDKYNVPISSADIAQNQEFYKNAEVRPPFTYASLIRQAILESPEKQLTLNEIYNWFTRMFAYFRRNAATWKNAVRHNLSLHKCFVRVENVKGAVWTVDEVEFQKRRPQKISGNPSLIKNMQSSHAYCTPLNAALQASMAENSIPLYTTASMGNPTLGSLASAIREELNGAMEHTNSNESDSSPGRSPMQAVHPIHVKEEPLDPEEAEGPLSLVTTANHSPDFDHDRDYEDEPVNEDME

Biological target: T1, forkhead box P3 (Foxp3) (mouse (endogenous in iTreg cells)) (UniProt Q99JB6)
T1 sequence: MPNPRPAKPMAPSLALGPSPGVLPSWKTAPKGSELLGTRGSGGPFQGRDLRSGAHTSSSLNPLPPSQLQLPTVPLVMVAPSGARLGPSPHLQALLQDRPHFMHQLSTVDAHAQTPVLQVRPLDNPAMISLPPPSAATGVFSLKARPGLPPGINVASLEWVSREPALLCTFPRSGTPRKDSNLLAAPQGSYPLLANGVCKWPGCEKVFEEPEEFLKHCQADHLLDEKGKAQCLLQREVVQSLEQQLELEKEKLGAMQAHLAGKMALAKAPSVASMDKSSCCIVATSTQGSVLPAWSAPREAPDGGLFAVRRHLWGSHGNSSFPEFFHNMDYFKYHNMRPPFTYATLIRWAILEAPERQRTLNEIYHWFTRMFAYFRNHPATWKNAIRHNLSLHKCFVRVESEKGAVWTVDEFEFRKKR
Assay: co-IP; lysates of mouse iTreg cells in RIPA buffer; immunoprecipitated with antibodies (1 ug/mL) and protein A sepharose beads at 4 °C, immunoblot; isotype matched IgG and Foxp1f/fFoxp3Cre cells as controls

## forkhead box P1 (Foxp1) (from UniProt P58462 1-705)
  binding: binds
